Results from publication PMC11352776.
These are yes or no findings as the source states them, for the method shown. Binding seen in cells or lysates may run through a third protein. A yes stands for co-enrichment or nearness to the bait. Other partners may have been found. Tags and fused reporters may be left off the sequences shown.

The chains behind the UniProt entries cited, without tags or fusion partners. Residues count along the entry.
UniProt E9PVD3, residues 36-3291: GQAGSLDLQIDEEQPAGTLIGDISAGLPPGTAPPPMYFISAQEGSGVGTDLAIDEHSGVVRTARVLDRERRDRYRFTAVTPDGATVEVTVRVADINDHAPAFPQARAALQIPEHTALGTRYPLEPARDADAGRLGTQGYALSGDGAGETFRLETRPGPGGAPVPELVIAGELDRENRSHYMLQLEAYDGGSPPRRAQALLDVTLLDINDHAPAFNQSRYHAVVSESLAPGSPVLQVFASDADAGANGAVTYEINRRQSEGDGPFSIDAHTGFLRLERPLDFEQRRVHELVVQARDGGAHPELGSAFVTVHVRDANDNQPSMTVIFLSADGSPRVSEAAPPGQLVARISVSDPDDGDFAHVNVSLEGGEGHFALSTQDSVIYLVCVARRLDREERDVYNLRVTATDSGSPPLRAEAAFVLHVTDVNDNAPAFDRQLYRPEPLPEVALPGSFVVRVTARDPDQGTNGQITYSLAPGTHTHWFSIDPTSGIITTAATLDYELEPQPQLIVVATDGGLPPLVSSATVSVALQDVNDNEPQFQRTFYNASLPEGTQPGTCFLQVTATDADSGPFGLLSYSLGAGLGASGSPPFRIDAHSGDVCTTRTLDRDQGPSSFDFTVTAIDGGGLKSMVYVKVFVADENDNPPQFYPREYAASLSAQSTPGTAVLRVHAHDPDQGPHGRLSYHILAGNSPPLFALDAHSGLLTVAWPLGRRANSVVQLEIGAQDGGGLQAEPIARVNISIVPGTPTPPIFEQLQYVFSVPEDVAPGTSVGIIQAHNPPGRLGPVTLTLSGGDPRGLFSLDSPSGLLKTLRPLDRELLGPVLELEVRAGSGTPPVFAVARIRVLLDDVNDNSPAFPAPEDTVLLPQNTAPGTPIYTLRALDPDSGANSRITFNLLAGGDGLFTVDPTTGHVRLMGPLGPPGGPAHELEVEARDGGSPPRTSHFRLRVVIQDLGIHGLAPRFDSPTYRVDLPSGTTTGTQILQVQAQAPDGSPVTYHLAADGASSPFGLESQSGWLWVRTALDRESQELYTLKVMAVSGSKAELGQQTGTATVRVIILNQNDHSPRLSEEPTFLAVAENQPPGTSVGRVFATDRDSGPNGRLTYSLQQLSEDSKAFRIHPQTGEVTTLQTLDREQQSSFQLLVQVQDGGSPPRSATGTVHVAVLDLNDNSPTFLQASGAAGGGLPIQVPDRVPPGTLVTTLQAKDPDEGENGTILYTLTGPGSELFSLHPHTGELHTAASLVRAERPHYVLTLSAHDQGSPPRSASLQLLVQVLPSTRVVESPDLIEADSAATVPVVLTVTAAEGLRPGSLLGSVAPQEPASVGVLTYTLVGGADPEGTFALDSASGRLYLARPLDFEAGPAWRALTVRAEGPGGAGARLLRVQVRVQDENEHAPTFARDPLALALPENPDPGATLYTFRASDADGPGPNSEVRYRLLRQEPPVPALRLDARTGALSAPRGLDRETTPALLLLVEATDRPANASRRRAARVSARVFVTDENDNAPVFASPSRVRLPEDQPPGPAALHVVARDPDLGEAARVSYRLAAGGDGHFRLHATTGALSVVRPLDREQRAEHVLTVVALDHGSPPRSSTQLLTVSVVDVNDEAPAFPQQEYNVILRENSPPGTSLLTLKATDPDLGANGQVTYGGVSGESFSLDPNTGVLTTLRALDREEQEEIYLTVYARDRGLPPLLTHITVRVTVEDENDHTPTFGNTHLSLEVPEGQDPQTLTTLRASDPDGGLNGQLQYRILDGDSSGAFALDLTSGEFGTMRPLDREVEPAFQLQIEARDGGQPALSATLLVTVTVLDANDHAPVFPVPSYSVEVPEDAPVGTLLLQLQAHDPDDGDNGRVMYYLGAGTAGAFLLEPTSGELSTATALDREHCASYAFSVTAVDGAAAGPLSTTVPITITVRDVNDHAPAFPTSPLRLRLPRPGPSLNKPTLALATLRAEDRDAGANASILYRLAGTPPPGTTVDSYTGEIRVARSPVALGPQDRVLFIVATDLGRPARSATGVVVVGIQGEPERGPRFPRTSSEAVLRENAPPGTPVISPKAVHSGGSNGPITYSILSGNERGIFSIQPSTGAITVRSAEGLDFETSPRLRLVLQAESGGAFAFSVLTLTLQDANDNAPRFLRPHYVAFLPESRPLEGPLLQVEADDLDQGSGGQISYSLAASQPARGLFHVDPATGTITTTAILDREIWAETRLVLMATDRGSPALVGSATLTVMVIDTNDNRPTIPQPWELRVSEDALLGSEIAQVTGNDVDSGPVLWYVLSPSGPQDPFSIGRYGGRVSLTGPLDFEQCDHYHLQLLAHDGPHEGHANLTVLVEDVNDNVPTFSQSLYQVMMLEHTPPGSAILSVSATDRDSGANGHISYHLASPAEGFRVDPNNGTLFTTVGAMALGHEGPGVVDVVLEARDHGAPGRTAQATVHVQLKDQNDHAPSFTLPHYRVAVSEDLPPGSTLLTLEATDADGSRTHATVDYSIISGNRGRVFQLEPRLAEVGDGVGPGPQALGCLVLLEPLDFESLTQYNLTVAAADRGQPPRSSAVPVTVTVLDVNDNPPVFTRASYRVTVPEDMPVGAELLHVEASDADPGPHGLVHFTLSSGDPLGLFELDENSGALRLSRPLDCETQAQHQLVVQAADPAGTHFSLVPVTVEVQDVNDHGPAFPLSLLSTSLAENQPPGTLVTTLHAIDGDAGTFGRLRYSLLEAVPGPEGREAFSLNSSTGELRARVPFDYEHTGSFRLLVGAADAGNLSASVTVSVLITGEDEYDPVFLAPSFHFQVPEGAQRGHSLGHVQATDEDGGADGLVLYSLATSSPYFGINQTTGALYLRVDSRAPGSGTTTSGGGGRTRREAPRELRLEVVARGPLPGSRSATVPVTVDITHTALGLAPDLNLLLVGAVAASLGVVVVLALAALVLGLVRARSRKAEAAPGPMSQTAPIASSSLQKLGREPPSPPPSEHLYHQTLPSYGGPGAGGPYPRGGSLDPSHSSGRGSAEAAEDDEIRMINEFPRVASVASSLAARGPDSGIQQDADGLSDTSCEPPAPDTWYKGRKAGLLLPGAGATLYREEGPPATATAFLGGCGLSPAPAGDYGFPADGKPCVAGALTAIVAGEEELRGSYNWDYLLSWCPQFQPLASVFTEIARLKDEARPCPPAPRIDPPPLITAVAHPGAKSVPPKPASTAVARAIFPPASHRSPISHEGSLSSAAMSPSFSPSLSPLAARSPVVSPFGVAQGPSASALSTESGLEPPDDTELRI
UniProt Q9WTS6: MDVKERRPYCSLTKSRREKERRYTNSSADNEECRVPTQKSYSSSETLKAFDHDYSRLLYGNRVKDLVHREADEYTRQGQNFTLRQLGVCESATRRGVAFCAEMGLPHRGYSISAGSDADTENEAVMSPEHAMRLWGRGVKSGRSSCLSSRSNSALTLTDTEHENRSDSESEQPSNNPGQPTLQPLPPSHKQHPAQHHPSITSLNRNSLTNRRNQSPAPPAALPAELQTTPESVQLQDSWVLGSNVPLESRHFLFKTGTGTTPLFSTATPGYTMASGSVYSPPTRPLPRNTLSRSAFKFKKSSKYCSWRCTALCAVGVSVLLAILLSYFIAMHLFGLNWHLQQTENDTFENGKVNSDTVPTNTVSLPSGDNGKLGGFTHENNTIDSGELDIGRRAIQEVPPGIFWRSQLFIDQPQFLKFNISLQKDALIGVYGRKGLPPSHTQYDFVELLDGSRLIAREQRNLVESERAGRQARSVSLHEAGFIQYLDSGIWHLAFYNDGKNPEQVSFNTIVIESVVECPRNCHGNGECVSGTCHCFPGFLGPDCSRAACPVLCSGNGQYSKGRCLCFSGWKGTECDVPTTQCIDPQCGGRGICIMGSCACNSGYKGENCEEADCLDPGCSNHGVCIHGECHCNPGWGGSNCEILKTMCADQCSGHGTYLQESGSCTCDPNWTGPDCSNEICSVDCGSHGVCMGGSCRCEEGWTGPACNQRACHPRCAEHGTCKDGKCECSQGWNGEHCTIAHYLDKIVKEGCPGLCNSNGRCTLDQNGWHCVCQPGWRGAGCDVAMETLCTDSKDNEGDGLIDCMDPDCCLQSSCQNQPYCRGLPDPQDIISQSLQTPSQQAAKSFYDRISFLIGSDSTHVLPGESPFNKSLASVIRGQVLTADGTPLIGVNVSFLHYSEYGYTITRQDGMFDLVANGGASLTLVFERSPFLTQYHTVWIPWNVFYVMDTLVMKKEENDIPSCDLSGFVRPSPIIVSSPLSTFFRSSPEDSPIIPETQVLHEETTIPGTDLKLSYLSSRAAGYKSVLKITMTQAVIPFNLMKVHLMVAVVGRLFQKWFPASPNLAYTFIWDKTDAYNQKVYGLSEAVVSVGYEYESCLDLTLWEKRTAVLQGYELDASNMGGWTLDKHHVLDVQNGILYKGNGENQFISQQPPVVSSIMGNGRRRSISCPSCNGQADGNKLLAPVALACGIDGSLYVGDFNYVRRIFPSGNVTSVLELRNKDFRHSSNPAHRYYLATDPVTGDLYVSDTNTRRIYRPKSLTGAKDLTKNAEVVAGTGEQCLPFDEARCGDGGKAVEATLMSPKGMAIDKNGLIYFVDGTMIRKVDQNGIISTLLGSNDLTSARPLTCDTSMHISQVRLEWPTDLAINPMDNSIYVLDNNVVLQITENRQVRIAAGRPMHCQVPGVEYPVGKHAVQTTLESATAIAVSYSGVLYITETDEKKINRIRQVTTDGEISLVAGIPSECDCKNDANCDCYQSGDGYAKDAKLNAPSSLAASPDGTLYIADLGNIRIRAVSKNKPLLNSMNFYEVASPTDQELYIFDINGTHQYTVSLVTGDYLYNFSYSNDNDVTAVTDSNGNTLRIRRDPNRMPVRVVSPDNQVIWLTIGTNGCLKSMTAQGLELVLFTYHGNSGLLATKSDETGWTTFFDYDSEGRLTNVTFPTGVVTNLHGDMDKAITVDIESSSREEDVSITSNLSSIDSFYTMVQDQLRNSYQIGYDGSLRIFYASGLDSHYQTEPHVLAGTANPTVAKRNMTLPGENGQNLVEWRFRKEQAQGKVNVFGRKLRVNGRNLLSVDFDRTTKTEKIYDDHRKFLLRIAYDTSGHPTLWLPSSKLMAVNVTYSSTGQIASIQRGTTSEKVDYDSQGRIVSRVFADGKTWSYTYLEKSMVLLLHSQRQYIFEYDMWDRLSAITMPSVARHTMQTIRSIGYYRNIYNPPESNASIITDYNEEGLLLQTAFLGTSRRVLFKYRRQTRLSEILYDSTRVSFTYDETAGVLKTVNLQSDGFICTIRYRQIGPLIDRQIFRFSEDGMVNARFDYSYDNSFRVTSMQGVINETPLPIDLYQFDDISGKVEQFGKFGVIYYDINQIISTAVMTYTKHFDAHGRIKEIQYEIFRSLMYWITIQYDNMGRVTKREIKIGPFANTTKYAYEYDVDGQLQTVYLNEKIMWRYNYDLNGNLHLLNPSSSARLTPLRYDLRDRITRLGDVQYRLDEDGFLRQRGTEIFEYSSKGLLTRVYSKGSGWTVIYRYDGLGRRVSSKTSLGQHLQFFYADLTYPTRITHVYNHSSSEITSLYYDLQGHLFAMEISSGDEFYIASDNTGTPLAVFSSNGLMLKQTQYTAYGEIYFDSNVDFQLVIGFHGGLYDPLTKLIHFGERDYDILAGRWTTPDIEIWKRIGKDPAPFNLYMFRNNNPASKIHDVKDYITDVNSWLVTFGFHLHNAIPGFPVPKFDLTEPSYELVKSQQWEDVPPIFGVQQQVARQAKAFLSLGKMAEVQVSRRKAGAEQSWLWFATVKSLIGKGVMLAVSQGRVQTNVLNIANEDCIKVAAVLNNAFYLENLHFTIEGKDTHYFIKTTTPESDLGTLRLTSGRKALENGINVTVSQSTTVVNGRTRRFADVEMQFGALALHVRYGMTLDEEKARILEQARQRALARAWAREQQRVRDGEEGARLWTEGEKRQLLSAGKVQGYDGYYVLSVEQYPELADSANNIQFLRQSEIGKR

T1: signal peptide sequence-deleted mouse LOTUS having streptavidin-binding protein (SBP)- and FLAG-tag at the N terminus (SBP-FLAG-LOTUS), overexpressed in Neuro2A cells (mouse) (UniProt Q8R555)
T1 sequence: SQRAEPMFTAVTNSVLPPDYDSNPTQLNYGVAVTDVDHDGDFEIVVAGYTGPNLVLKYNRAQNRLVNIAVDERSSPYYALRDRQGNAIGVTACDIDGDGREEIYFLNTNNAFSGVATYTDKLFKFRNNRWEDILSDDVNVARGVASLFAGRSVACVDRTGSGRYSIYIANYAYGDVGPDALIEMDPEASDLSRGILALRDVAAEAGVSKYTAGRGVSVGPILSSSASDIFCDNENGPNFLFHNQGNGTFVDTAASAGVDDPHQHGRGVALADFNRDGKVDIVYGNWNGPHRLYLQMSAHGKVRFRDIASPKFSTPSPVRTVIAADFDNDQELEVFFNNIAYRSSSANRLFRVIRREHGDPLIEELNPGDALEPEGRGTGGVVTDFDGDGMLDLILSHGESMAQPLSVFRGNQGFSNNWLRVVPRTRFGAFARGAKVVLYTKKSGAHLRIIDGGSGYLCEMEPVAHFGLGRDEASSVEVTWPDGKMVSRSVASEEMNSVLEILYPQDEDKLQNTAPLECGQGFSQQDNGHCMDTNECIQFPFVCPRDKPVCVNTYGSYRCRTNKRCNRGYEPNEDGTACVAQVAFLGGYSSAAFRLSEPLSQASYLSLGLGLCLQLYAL


Target: T1, signal peptide sequence-deleted mouse LOTUS having streptavidin-binding protein (SBP)- and FLAG-tag at the N terminus (SBP-FLAG-LOTUS), overexpressed in Neuro2A cells (mouse)
Assay: affinity purification with mass spectrometry; lysates (1% Nonidet P-40, 137 mM NaCl, 20 mM Tris-Cl pH 7.5) of Neuro2A cells overexpressing SBP-FLAG-LOTUS applied to streptavidin resins; SDS-PAGE bands excised, in-gel digestion, LC-MS/MS

Row | Molecule | binding
1 | Teneurin-4 (endogenous, Neuro2A cells) (from UniProt Q3UHK6 1-2771) | binds
2 | Integrin alpha-Iib (endogenous, Neuro2A cells) (protein, UniProt Q9QUM0 32-1033) LNLDSEKFSVYAGPNGSHFGFSVDFHKDKHGSVSIVVGAPRALNASQEETGAVFLCPWKANGGKCNPLLFDLRDETRNLGFQIFQTFKTGQGLGASVVSWNDVIVACAPWQHWNVLEKRDEAEKTPVGGCFLAQLQSGGRAEYSPCRANTMSSVYAESFRGDKRYCEAGFSLAVTQAGELVLGAPGGYFFLGLLARVPIENIISSYRPGTLLWHVSNQRFTYDNSNPVFFDGYRGYSVAVGEFDGDPSTTEYVSGAPTWSWTLGAVEILDSYYQPLHRLHGEQMASYFGHSVAVTDVNGDGRHDLLVGAPLYMESRADRKLAEVGRVYLFLQPKGPQALSTPTLLLTGTQLYGRFGSAIAPLGDLNRDGYNDIAVAAPYGGPSGQGQVLIFLGQSEGLSPRPSQVLDSPFPTGSGFGFSLRGAVDIDDNGYPDLIVGAYGASKVAVYRAQPVVMATVQLMVQDSLNPTLKNCVLDQTKTPVSCFNIQMCVGATGHNIPQKLHLKAELQLDLQKPRQGRRVLLLASQQASLTLSLDLGGRDKPICHTTGAFLRDEADFRDKLSPIVLSLNVSLPPEETGGAPAVVLHGETHVQEQTRIILDCGEDDLCVPQLRLTATAGDSPLLIGADNVLELKIEAANDGEGAYEAELAVHLPPGAHYMRALSNIEGFERLVCTQKKENESRVALCELGNPMKKDTRIGITMLVSVENLEEAGESVSFQLQVRSKNSQNPNSKVVMLPVAIQAEATVELRGNSFPASLVVAAEEGDREQEDLDRWVSRLEHTYELHNIGPGTVNGLRLLIHIPGQSQPSDLLYILDVQPQGGLLCSTQPSPKVDWKLSTPSPSSIRPVHHQRERRQAFLQGPKPGQQDPVLVSCDGSASCTVVECELREMVRGQRAMVTVQVMLGLSSLRQRPQEQFVLQSHAWFNVSSLPYSVPVVSLPSGQARVQTQLLRALEERAIPVWWVLVGVLGGLLLLTLLVLAMWKAGFFKRNRPPLEEDEEEE | binds

Further lines, results first:

Row | binding | Molecule
3 | binds | Protocadherin-16 (endogenous, Neuro2A cells) (from UniProt E9PVD3 36-3291)
4 | binds | Teneurin-3 (endogenous, Neuro2A cells) (from UniProt Q9WTS6 1-2715)
5 | binds | Integrin alpha-6 (endogenous, Neuro2A cells) (protein, UniProt Q61739 24-1091) FNLDTREDNVIRKSGDPGSLFGFSLAMHWQLQPEDKRLLLVGAPRAEALPLQRANRTGGLYSCDITSRGPCTRIEFDNDADPMSESKEDQWMGVTVQSQGPGGKVVTCAHRYEKRQHVNTKQESRDIFGRCYVLSQNLRIEDDMDGGDWSFCDGRLRGHEKFGSCQQGVAATFTKDFHYIVFGAPGTYNWKGIVRVEQKNNTFFDMNIFEDGPYEVGGETDHDESLVPVPANSYLGFSLDSGKGIVSKDDITFVSGAPRANHSGAVVLLKRDMKSAHLLPEYIFDGEGLASSFGYDVAVVDLNADGWQDIVIGAPQYFDRDGEVGGAVYVYINQQGKWSNVKPIRLNGTKDSMFGISVKNIGDINQDGYPDIAVGAPYDDLGKVFIYHGSPTGIITKPTQVLEGTSPYFGYSIAGNMDLDRNSYPDLAVGSLSDSVTIFRSRPVINILKTITVTPNRIDLRQKSMCGSPSGICLKVKACFEYTAKPSGYNPPISILGILEAEKERRKSGLSSRVQFRNQGSEPKYTQELTLNRQKQRACMEETLWLQENIRDKLRPIPITASVEIQEPSSRRRVNSLPEVLPILNSNEAKTVQTDVHFLKEGCGDDNVCNSNLKLEYKFGTREGNQDKFSYLPIQKGIPELVLKDQKDIALEITVTNSPSDPRNPRKDGDDAHEAKLIATFPDTLTYSAYRELRAFPEKQLSCVANQNGSQADCELGNPFKRNSSVTFYLILSTTEVTFDTTDLDINLKLETTSNQDNLAPITAKAKVVIELLLSVSGVAKPSQVYFGGTVVGEQAMKSEDEVGSLIEYEFRVINLGKPLKNLGTATLNIQWPKEISNGKWLLYLMKVESKGLEQIVCEPHNEINYLKLKESHNSRKKRELPEKQIDDSRKFSLFPERKYQTLNCSVNVRCVNIRCPLRGLDSKASLVLRSRLWNSTFLEEYSKLNYLDILLRASIDVTAAAQNIKLPHAGTQVRVTVFPSKTVAQYSGVAWWIILLAVLAGILMLALLVFLLWKCGFFKRSRYDDSIPRYHAVRIRKEEREIKDEKHMDNLEKKQWITKWNENESYS
